This is an account of results in US20080107654A1.

Amino acid sequences for entries named in this document (tags omitted). Residues count along the entry.
UniProt Q08722, residues 19-141: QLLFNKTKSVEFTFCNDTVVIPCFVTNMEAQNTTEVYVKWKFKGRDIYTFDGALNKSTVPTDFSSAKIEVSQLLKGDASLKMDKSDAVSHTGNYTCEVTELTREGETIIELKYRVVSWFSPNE

This test concerns the target soluble human CD47 (human) (UniProt Q08722). Kind of test: BIACORE, soluble human CD47 amine-coupled to CM5 chip, CHO culture supernatant injected.

These are yes or no findings as the source states them, for the method shown. Some entries that bind do so weakly or less than the wild type.

B1: humanized MABL-2 HL5 SS44 (scFv)
scFv: QVQLVQSGAEVKKPGASVQVSCKASGYTFTNHVIHWLRQAPGQCLEWMGYIYPYNDGTKYNEKFKDRVTMTSDTSISTAYMELSSLRSDDTAVYYCARGGYYTYDDWGQATLVTVSSGGGGSDIVMTQSPLSLPVTPGEPASISCRSSQSLVHSNGKTYLHWYLQKPGQSPRLLIYKVSNRFSGVPDRFSGSGSGTDFTLKISRVEADDVGIYYCSQSTHVPYTFGCGTKLEIK
With B1, the binding entry is given as “binds”.

B2: humanized MABL-2 HL5 SS105 (scFv)
scFv: QVQLVQSGAEVKKPGASVQVSCKASGYTFTNHVIHWLRQAPGQGLEWMGYIYPYNDGTKYNEKFKDRVTMTSDTSISTAYMELSSLRSDDTAVYYCARGGYYTYDDWGCATLVTVSSGGGGSDIVMTQSPLSLPVTPGEPASISCRSSQSLVHSNGKTYLHWYLQKPGQCPRLLIYKVSNRFSGVPDRFSGSGSGTDFTLKISRVEADDVGIYYCSQSTHVPYTFGQGTKLEIK
As for B2, the binding result is reported as “binds”.
